# Screening data

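Luminescence from an EWS-FLI1 target-promoter (NR0B1) reporter, set against a CMV-promoter reporter, two days after silencing single genes in TC32 Ewing sarcoma cells.
Each siRNA was applied at 20 nM.
A z-score of the log NR0B1-over-CMV signal, less the median of siRNAs with the same seed; more negative means a stronger specific loss of the NR0B1 reporter.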

This is part of the screen; most of the strongest results are not listed here.
Sequences are the guide (antisense) strand, without overhang.

{"sirna": "AAAGAAACGGGCUUGUCCU", "target gene": "THAP1", "seed-corrected z-score": "-0.3546"}
{"sirna": "AUCUUCUACAGAAAGUUGG", "target gene": "TICAM1", "seed-corrected z-score": "-1.117"}
{"sirna": "AAUAUAGCUAUGCCGACUC", "target gene": "CDKL5", "seed-corrected z-score": "0.3714"}
{"sirna": "UCAGCGAUCUUGAUGUGCC", "target gene": "CAMKK2", "seed-corrected z-score": "-0.3279"}
{"sirna": "AUUCCGAAAGUCAAGCUUG", "target gene": "FBRS", "seed-corrected z-score": "0.6657"}
{"sirna": "UCCUUUACCCACGCUUUCU", "target gene": "DCD", "seed-corrected z-score": "-0.1907"}
{"sirna": "UGCUUGUCCGGGUCUUUGG", "target gene": "OTP", "seed-corrected z-score": "0.08778"}
{"sirna": "UUUUCUGCUAGUGCGCACU", "target gene": "CRELD2", "seed-corrected z-score": "0.733"}
{"sirna": "UUGCUAACCAUGACAACUG", "target gene": "TAS2R50", "seed-corrected z-score": "-0.8275"}
{"sirna": "UAGUGUAUUUGGGUCUUCG", "target gene": "VPS45", "seed-corrected z-score": "-0.6288"}
{"sirna": "AUAGCUAUGAGUAUGCUCC", "target gene": "NOSTRIN", "seed-corrected z-score": "0.9227"}
{"sirna": "UAGAGGUUGAGCAUCGCCU", "target gene": "CEMP1", "seed-corrected z-score": "-0.6151"}
{"sirna": "UGAAAUAAGAAUAUUCUCC", "target gene": "NCAPH", "seed-corrected z-score": "2.14"}
{"sirna": "UCUCCUUAUAUGUUGUUGC", "target gene": "SSU72P8", "seed-corrected z-score": "0.1244"}
{"sirna": "AUAGUCUGCCGAAUUGUCC", "target gene": "STX4", "seed-corrected z-score": "-0.5827"}
{"sirna": "AAUAGUUACAUCACUGUUG", "target gene": "PARD6G", "seed-corrected z-score": "0.4668"}
{"sirna": "UUUGGUAUUUGUGGAUUCC", "target gene": "CATSPER2", "seed-corrected z-score": "0.8"}
{"sirna": "UCUUCUUGCGCUGAGUGCC", "target gene": "TIGD5", "seed-corrected z-score": "-0.4583"}
{"sirna": "UCCACGUCUAUUAUUACCU", "target gene": "NUPL2", "seed-corrected z-score": "-0.01426"}
{"sirna": "ACAGGAAGCAUGAAUAGUU", "target gene": "MUCL1", "seed-corrected z-score": "0.6871"}
{"sirna": "UUUAUACAUGUUGAGAUCC", "target gene": "TAS2R10", "seed-corrected z-score": "0.3558"}
{"sirna": "AAAUUUCCCUCAAAGUUUC", "target gene": "FUNDC2", "seed-corrected z-score": "2.516"}
{"sirna": "AAAUUGAUCACGGUGCAAC", "target gene": "LAMTOR5", "seed-corrected z-score": "-0.2204"}
{"sirna": "UCUGCAGUCCUAGAUGGCC", "target gene": "POM121L9P", "seed-corrected z-score": "0.07203"}
{"sirna": "UAAAACACUGCAAAAAGCU", "target gene": "SFT2D1", "seed-corrected z-score": "0.5281"}
{"sirna": "UUUACGCUUACUAUUCUCC", "target gene": "TRIP10", "seed-corrected z-score": "-0.2774"}

The last 3 entries again:

siRNA,target gene,seed-corrected z-score
UCUGCAGUCCUAGAUGGCC,POM121L9P,0.07203
UAAAACACUGCAAAAAGCU,SFT2D1,0.5281
UUUACGCUUACUAUUCUCC,TRIP10,-0.2774

Source: PubChem BioAssay AID1159506 (NCATS, 2015).